Data taken from patent US20240262919A1 (SHANGHAITECH UNIVERSITY, published 2024).
Numbering of substitutions follows the chain as printed. Results are given in words; binding and its absence hold for the method and conditions named. Some entries that bind do so weakly or less than the wild type.

T1: antigen of the affinity maturation selections of antibody 3131 (IL-18Rβ, construct not named) (UniProt O95256)
T1 sequence (looked up): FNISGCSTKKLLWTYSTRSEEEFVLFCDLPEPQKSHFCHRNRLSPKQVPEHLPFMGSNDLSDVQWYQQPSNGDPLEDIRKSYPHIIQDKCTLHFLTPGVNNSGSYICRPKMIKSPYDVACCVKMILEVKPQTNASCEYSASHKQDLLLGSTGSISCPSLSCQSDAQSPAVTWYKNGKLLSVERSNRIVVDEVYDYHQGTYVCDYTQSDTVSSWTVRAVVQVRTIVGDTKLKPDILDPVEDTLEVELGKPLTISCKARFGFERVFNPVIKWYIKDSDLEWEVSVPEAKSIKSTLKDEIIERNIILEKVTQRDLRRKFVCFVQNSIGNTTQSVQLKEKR

B1: 3131 AM2-36 (Fab, V domains shown)
VH: EVQLVESGGGLVQPGGSLRLSCAASGFNLYYSSMHWVRQAPGKGLEWVASIYSSSGSTSYADSVKGRFTISADTSKNTAYLQMNSLRAEDTAVYYCARSSFSHGYGWYGLDYWGQGTLVTVSS
VL: DIQMTQSPSSLSASVGDRVTITCRASQSVSSAVAWYQQKPGKAPKLLIYSASSLYSGVPSRFSGSRSGTDFTLTISSLQPEDFATYYCQQYGYHYAGLITFGQGTKVEIK
notes: Fab
B2: 3131 AM2-O-09 (Fab, V domains shown)
VH: B1 VH with N28D, S55G
VL: B1 VL with K45R, S50G
B3: 3131 AM2-O-01 (Fab, V domains shown)
VH: B1 VH with N28T, S55G
VL: B1 VL with K45R
B4: 3131 AM2-O-04 (Fab, V domains shown)
VH: B1 VH with N28T, S57D, S59H
VL: B1 VL with K45R
B5: 3131 AM2-O-03 (Fab, V domains shown)
VH: B1 VH with N28S, S55G
VL: B1 VL with K45R
B6: 3131 AM2-O-11 (Fab, V domains shown)
VH: B1 VH with S57D, S59H
VL: B1 VL with K45R, S50G
B7: 3131 AM2-O-15 (Fab, V domains shown)
VH: B1 VH with S55G
VL: B1 VL with K45R, Y95D
B8: 3131 AM2-O-05 (Fab, V domains shown)
VH: B1 VH with N28D, S57D, S59H
VL: B1 VL with K45R
B9: 3131 AM2-O-02 (Fab, V domains shown)
VH: B1 VH with N28D, S55G
VL: B1 VL with K45R
B10: 3131 AM2-O-07 (Fab, V domains shown)
VH: B1 VH with S55G
VL: B1 VL with K45R, S50G
B11: 3131 AM2-O-14 (Fab, V domains shown)
VH: B1 VH with N28S, S57D, S59H
VL: B1 VL with K45R, S50G
B12: 3131 AM2-O-13 (Fab, V domains shown)
VH: B1 VH with N28D, S57D, S59H
VL: B1 VL with K45R, S50G
B13: 3131 AM2-O-06 (Fab, V domains shown)
VH: B1 VH with N28S, S57D, S59H
VL: B1 VL with K45R
B14: 3131 AM2-8 (Fab, V domains shown)
VH: B1 VH with S55N, S57R, S59Y
VL: B1 VL
B15: 3131 AM2-O-12 (Fab, V domains shown)
VH: B1 VH with N28T, S57D, S59H
VL: B1 VL with K45R, S50G
B16: 3131 AM2-O-08 (Fab, V domains shown)
VH: B1 VH with N28T, S55G
VL: B1 VL with K45R, S50G
B17: 3131 AM2-O-10 (Fab, V domains shown)
VH: B1 VH with N28S, S55G
VL: B1 VL with K45R, S50G
B18: 3131 AM2-S-H (Fab, V domains shown)
VH: B1 VH with S55Y, S57Y, S59Y
VL: B1 VL with S50H
notes: Fab
B19: 3131 AM2-4 (Fab, V domains shown)
VH: B1 VH with S59C
VL: B1 VL
notes: Fab
B20: 3131 AM2-15 (Fab, V domains shown)
VH: B1 VH with S57D, S59G
VL: B1 VL
notes: Fab
B21: 3131 AM2-18 (Fab, V domains shown)
VH: B1 VH with S55G
VL: B1 VL
notes: Fab
B22: 3131 AM2-13 (Fab, V domains shown)
VH: B1 VH with S55Y, S57Y, S59Y
VL: B1 VL with Y95D
notes: Fab
B23: 3131 AM2-21 (Fab, V domains shown)
VH: B1 VH with S55Y, S57Y, S59Y
VL: B1 VL with A51G, L54G, Y55R
notes: Fab
B24: 3131 AM2-37 (Fab, V domains shown)
VH: B1 VH
VL: B1 VL with Y95S
notes: Fab
B25: 3131 AM2-30 (Fab, V domains shown)
VH: B1 VH with S55Y, S57Y, S59Y
VL: B1 VL with L54E, Y55R
notes: Fab
B26: 3131 AM2-7 (Fab, V domains shown)
VH: B1 VH with S55H, S57G, S59Y
VL: B1 VL with Y95D
notes: Fab
B27: 3131 AM2-2 (Fab, V domains shown)
VH: B1 VH with S55H, S57R, S59G
VL: B1 VL with L54R, Y55D
notes: Fab
B28: 3131 AM2-5 (Fab, V domains shown)
VH: B1 VH with S57D, S59H
VL: B1 VL
notes: Fab
B29: 3131 AM2-35 (Fab, V domains shown)
VH: B1 VH with S55Y, S57Y, S59Y
VL: B1 VL with Y95S
notes: Fab
B30: 3131 AM2-33 (Fab, V domains shown)
VH: B1 VH with S55Y, S57H
VL: B1 VL
notes: Fab
B31: 3131 AM2-17 (Fab, V domains shown)
VH: B1 VH with S55H, S57N, S59D
VL: B1 VL
notes: Fab
B32: 3131 AM2-32 (Fab, V domains shown)
VH: B1 VH with S55Y, S57Y, S59Y
VL: B1 VL with A51S, L54V
notes: Fab
B33: 3131 AM2-28 (Fab, V domains shown)
VH: B1 VH with S55Y, S57Y, S59Y
VL: B1 VL with A51R, L54D, Y55S
notes: Fab
B34: 3131 AM2-24 (Fab, V domains shown)
VH: B1 VH with S55Y, S57Y, S59Y
VL: B1 VL with A51D
notes: Fab
B35: 3131 AM2-9 (Fab, V domains shown)
VH: B1 VH with S55Y, S57Y, S59Y
VL: B1 VL with Y95N
notes: Fab
B36: 3131 AM2-S-T (Fab, V domains shown)
VH: B1 VH with S55Y, S57Y, S59Y
VL: B1 VL with S50T
notes: Fab
B37: 3131 AM2-3 (Fab, V domains shown)
VH: B1 VH with S57Y
VL: B1 VL
notes: Fab
B38: 3131 AM2-S-G (Fab, V domains shown)
VH: B1 VH with S55Y, S57Y, S59Y
VL: B1 VL with S50G
notes: Fab
B39: 3131 AM2-S-Y (Fab, V domains shown)
VH: B1 VH with S55Y, S57Y, S59Y
VL: B1 VL with S50Y
notes: Fab
B40: 3131 AM2-25 (Fab, V domains shown)
VH: B1 VH with S55Y, S57Y, S59Y
VL: B1 VL with L54R, Y55D
notes: Fab
B41: 3131 AM2-6 (Fab, V domains shown)
VH: B1 VH with S55H, S57G, S59N
VL: B1 VL
notes: Fab
B42: 3131 AM2-1 (Fab, V domains shown)
VH: B1 VH with S55Y, S57Y, S59Y
VL: B1 VL with Y95H
notes: Fab
B43: 3131 AM2-26 (Fab, V domains shown)
VH: B1 VH with S55Y, S57Y, S59Y
VL: B1 VL with A51E, Y55S
notes: Fab
B44: 3131 AM2-14 (Fab, V domains shown)
VH: B1 VH with S55Y, S57Y, S59Y
VL: B1 VL with Y95G
notes: Fab
B45: 3131 AM2-31 (Fab, V domains shown)
VH: B1 VH with S55Y, S57Y, S59Y
VL: B1 VL with A51E
notes: Fab

The binders below were run against T1, antigen of the affinity maturation selections of antibody 3131 (IL-18Rβ, construct not named) (assay: affinity-based solution-phase phage display selection, decreasing antigen concentration).

Row | binding | Binder
1 | binds | B1
2 | binds | B2
3 | binds | B3
4 | binds | B4
5 | binds | B5
6 | binds | B6
7 | binds | B7
8 | binds | B8
9 | binds | B9
10 | binds | B10
11 | binds | B11
12 | binds | B12
13 | binds | B13
14 | binds | B14
15 | binds | B15
16 | binds | B16
17 | binds | B17
18 | binds | B18
19 | binds | B19
20 | binds | B20
21 | binds | B21
22 | binds | B22
23 | binds | B23

Row | binding | Binder
24 | binds | B24
25 | binds | B25
26 | binds | B26
27 | binds | B27
28 | binds | B28
29 | binds | B29
30 | binds | B30
31 | binds | B31
32 | binds | B32
33 | binds | B33
34 | binds | B34
35 | binds | B35
36 | binds | B36
37 | binds | B37
38 | binds | B38
39 | binds | B39
40 | binds | B40
41 | binds | B41
42 | binds | B42
43 | binds | B43
44 | binds | B44
45 | binds | B45
